The results in this text go back to patent publication US20250382657A1, “METHODS FOR MAPPING BINDING SITES OF COMPOUNDS” (Cambridge Enterprise Limited, priority 2022, published 2025).

In this data set the test system is U2OS cells. Nature of the data set: Cell imaging of nuclear enrichment (fluorescence microscopy). It counts as cell-based, human. Particulars: live U2OS cells, 1 μM, 6 hs.
In the case of `COc1cccc2c1C(=O)c1c(O)c3c(c(O)c1C2=O)C[C@@](O)(C(=O)COC(=O)CCCC(=O)NCCOCCOCCOCCOCCNC(=O)CCCC[C@H]1SC[C@H]2NC(=O)N[C@H]21)C[C@@H]3O[C@H]1C[C@H](N)[C@H](O)[C@H](C)O1` [Dox-bio1], the cellular localisation result was “predominantly accumulated in the nuclei”.

Regarding `COc1cccc2c1C(=O)c1c(O)c3c(c(O)c1C2=O)C[C@@](O)(C(=O)CO)C[C@@H]3O[C@H]1C[C@H](NC(=O)CCOCCOCCOCCOCCNC(=O)CCCC[C@@H]2SC[C@@H]3NC(=O)N[C@@H]32)[C@H](O)[C@H](C)O1` [Dox-bio2], the cellular localisation result is “mainly located in the cytoplasm”. With `COc1cccc2c1C(=O)c1c(O)c3c(c(O)c1C2=O)C[C@@](O)(C(=O)CO)C[C@@H]3O[C@H]1C[C@H](N)[C@H](O)[C@H](C)O1` [doxorubicin], the cellular localisation entry is “predominantly accumulated in the nuclei”.
